Earlier results, collected in patent US11712426B2, “Metallo-liothyronine” (Synthonics, Inc., priority 2018, dated 2023).

Details: Table 1; cited from earlier work

SMILES: CCn1cc(C(=O)O)c(=O)c2cc(F)c(N3CCN(C)CC3)cc21 [Pefloxacin]
- pKa 1: 6.21
- pKa 2: 7.87
